Results deposited as PubChem BioAssay AID1259308 (NCATS, 2017)
Assay: 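Knock-downs that increase output of a recombinant reporter protein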 (primary screen). Cells: human HEK293 embryonic kidney cells stably expressing firefly luciferase (HEK-CMV-Luc2-Hygro). Reagent: single siRNA against human genes, 0.8 pmol siRNA per well. Duration: 72 h. Detection: 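Reporter luminescence and viable-cell signal on separate replicate plates, given as percent of non-targeting control and median/MAD z-scores, plus per-cell luciferase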. Scale: total luciferase, z-score and total luciferase, % of control: higher = more reporter protein produced; luciferase per cell, z-score: higher = more reporter output per viable cell. Active means: 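Active when the median/MAD z-score for overall luciferase is greater than 3; a gene was taken forward for validation with new siRNAs if at least two of its three siRNAs passed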. Meaning of the calls: active = raised luciferase; inactive = no rise.
Here is one part, drawn at random, of about 59,000 reagents tested. Over the whole deposit, about 1,510 (2.6%) are marked active. 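Calls use total luciferase alone and ignore viability, so some active siRNAs may act by altering cell number.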 Reagents against one gene are numbered here. Further read-outs or replicates are left out here.

target gene | reagent no. | total luciferase, z-score | total luciferase, % of control | luciferase per cell, z-score | Outcome
TSACC (TSSK6 activating cochaperone) | 1 | -0.102 | 79.9 | -0.348 | inactive
TSACC (TSSK6 activating cochaperone) | 2 | 0.433 | 90.5 | -0.618 | inactive
TSACC (TSSK6 activating cochaperone) | 3 | 2.86 | 139 | 2.05 | inactive
ACTR3B (actin related protein 3B) | 1 | -2.22 | 37.7 | -2.03 | inactive
ACTR3B (actin related protein 3B) | 2 | 1 | 102 | 0.37 | inactive
ACTR3B (actin related protein 3B) | 3 | 0.121 | 84.3 | -0.285 | inactive
RIOK2 (RIO kinase 2) | 1 | -0.567 | 70.6 | -0.231 | inactive
RIOK2 (RIO kinase 2) | 2 | -0.836 | 65.3 | 0.898 | inactive
RIOK2 (RIO kinase 2) | 3 | 0.5 | 91.8 | 0.457 | inactive
BTG2 (BTG anti-proliferation factor 2) | 1 | -0.903 | 63.9 | -1.06 | inactive
BTG2 (BTG anti-proliferation factor 2) | 2 | 1.57 | 113 | 1.1 | inactive
BTG2 (BTG anti-proliferation factor 2) | 3 | 0.78 | 97.4 | -0.0174 | inactive
FUNDC2P2 (FUN14 domain containing 2 pseudogene 2) | 1 | 0.871 | 99.2 | 0.55 | inactive
FUNDC2P2 (FUN14 domain containing 2 pseudogene 2) | 2 | 0.712 | 96 | 0.832 | inactive
FUNDC2P2 (FUN14 domain containing 2 pseudogene 2) | 3 | 0.212 | 86.1 | -0.4 | inactive
FCER1A (Fc epsilon receptor Ia) | 1 | -0.566 | 70.6 | -0.858 | inactive
FCER1A (Fc epsilon receptor Ia) | 2 | -0.201 | 77.9 | 0.206 | inactive
FCER1A (Fc epsilon receptor Ia) | 3 | -1.3 | 56 | -1.52 | inactive
F2 (coagulation factor II, thrombin) | 1 | -0.993 | 62.1 | -1.1 | inactive
F2 (coagulation factor II, thrombin) | 2 | -0.179 | 78.3 | -0.479 | inactive
F2 (coagulation factor II, thrombin) | 3 | 0.68 | 95.4 | 0.874 | inactive
GRIK1 (glutamate ionotropic receptor kainate type subunit 1) | 1 | -1.15 | 59 | -1.56 | inactive
GRIK1 (glutamate ionotropic receptor kainate type subunit 1) | 2 | 1.31 | 108 | 0.458 | inactive
GRIK1 (glutamate ionotropic receptor kainate type subunit 1) | 3 | 0.339 | 88.6 | -0.301 | inactive

Part of the list above, reformatted.
{"target gene":"FUNDC2P2 (FUN14 domain containing 2 pseudogene 2)","reagent no.":1,"total luciferase, z-score":0.871,"total luciferase, % of control":99.2,"luciferase per cell, z-score":0.55,"Outcome":"inactive"}
{"target gene":"FUNDC2P2 (FUN14 domain containing 2 pseudogene 2)","reagent no.":2,"total luciferase, z-score":0.712,"total luciferase, % of control":96,"luciferase per cell, z-score":0.832,"Outcome":"inactive"}
